These results are taken from article PMC9727647.

Sequences of proteins named here, by UniProt entry; tags and fusion partners are left off.
UniProt Q8N1E6: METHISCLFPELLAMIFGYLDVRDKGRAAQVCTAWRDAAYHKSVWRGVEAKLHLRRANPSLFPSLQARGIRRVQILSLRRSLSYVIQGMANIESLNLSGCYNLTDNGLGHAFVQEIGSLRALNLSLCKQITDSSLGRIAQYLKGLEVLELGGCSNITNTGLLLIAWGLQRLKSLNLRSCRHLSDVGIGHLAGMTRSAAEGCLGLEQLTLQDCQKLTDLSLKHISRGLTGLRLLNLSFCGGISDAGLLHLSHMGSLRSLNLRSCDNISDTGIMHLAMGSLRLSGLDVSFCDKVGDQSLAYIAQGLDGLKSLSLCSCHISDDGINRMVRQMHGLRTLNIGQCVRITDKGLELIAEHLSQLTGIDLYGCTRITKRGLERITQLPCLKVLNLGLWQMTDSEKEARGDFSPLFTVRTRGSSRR
UniProt O95602: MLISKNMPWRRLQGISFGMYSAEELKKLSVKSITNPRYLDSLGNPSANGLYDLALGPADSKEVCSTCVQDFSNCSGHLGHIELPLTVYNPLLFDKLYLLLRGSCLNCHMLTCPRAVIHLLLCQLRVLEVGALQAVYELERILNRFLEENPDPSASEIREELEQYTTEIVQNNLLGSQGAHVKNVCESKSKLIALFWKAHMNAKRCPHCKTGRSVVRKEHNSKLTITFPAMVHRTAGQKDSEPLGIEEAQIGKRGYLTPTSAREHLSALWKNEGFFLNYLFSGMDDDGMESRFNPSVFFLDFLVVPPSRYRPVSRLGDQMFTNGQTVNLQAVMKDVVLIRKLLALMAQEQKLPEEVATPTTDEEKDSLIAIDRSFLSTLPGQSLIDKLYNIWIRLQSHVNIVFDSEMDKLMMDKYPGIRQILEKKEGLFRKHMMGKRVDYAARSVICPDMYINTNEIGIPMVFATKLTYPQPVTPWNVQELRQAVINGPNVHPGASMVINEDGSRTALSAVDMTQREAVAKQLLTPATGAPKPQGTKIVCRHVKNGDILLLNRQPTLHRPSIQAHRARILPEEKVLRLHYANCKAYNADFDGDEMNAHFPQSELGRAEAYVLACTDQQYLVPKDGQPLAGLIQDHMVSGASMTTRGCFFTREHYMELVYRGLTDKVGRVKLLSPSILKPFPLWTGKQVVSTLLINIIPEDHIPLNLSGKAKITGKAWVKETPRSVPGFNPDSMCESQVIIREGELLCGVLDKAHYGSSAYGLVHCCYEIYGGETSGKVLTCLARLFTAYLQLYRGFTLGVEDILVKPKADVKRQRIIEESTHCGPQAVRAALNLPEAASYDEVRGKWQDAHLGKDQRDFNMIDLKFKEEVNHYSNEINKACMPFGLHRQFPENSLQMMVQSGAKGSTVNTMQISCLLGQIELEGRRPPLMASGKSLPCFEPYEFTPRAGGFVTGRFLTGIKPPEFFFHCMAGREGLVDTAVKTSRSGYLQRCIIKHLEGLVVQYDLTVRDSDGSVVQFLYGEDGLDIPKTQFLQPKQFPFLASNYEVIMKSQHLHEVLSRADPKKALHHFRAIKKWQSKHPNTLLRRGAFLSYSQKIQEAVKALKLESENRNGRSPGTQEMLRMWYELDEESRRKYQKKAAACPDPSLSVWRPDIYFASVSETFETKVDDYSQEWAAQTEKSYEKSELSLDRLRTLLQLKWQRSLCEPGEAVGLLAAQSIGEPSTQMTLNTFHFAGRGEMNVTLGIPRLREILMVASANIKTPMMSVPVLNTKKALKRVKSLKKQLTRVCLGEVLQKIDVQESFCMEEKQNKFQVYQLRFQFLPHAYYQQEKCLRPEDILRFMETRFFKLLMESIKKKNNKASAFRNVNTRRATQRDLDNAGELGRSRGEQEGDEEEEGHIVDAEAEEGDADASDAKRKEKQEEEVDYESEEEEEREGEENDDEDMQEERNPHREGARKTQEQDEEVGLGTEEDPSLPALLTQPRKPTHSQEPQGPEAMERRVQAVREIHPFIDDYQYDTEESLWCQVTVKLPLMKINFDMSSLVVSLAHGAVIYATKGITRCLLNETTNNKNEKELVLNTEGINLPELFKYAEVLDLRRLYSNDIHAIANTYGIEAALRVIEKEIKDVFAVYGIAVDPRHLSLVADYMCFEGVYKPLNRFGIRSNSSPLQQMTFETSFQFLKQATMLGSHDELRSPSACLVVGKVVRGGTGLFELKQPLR

No constants are given. Whether binding was seen depends on the method and setting. Binding seen in cells or lysates may run through a third protein. Some results given as binding are weak or reduced against the parent protein; the word gives no strength.

Assay [1] has as its target Myc-tagged FBXL14 (FBXL14-Myc), in vitro translated (UniProt Q8N1E6). Description: co-IP; both proteins in vitro translated in reticulocyte lysate, equal amounts mixed and incubated 30 min at 30 C; precipitated with Myc-tag antibody 4A6 overnight, blotted for RPA194 and FBXL14-Myc.
The target in assay [2] is Myc-tagged FBXL14 (FBXL14-Myc), stably expressed in A375 cells (UniProt Q8N1E6). Description: co-IP; A375 cells stably expressing RPA194-HA and FBXL14-Myc, treated with or without BMH-21 (1 uM) and MG132 (10 uM) for 4 h; RIPA lysate diluted in 0.5% NP-40 buffer (50 mM Tris-HCl pH 7.5, 150 mM NaCl); precipitated with Myc-tag antibody 4A6 overnight at 4 C, blotted for RPA194 and FBXL14-Myc.

Turning to “HA-tagged RPA194, in vitro translated (from pCMV6-AC-RPA194-HA-His) (from UniProt O95602 1-1720)”, in assay [1], the binding result is recorded as “binds”.
Take “hemagglutinin (HA)-tagged RPA194 (RPA194-HA), stably expressed in A375 cells (from UniProt O95602 1-1720)”: the binding result in assay [2] was “binds”.
